Data on one molecule can be found in PMC12969390.

The target in this experiment is T1, TBP-TAP (C. albicans) (UniProt O43133).
T1 sequence: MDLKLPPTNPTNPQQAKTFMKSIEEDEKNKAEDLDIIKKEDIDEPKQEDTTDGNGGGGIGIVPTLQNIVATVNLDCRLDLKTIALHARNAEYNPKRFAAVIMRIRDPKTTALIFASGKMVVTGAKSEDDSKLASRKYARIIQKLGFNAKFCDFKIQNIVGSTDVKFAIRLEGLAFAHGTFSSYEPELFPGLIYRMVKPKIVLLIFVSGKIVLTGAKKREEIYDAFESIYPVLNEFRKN
Kind of experiment: affinity purification with mass spectrometry; TBP-TAP and TAF11-TAP affinity purified from C. albicans strains, MudPIT; untagged strain SN87 as control.

These are yes or no findings as the source states them, for the method shown. Binding seen in cells or lysates may run through a third protein. Here binding means that the protein was enriched with, or labelled near, the bait; the list need not be complete.

B1: TAF12 (protein, UniProt Q5ADM2 1-515)
chain: MDSSAASSQEKRVGTSTPEAELNPHRAKALLAKFKEEMALAKAATDPQEREKHSELVEKIKRILIRYQEQQKQAKNNSPATKSNLTNQDSTTNTPSPLATNNNSATNVIEPKTETPDSTPMEQKPIQAPTPQHPNNASTSSATMSTTQFQPQPQPQQQTVTVEKYNHVKNTLKDMWKQVKTLEASSINETQTKKEEIDRKITELRNQMQKYHTAALRMKSKLIEQGTIPANSTPIGSPTPVSNTDPTPIANTTNTSNVTPPTEKAEENSKPNVKPPSTTTTTTSKSKPKPLSTTATNSTTKTSTPSKGSGSSKSNNRSSSQNTPGTSTSASATKTASVSTEKDAPLTATTSTSAVAPAAATVAATTAPTAAAAATSLSTASAITTKSTADPKVTPSNIPDNDGRVLTKRKLVEMINNISIDQGDAKIPIDNDVEDIFLDLADEFVRNVVQFSGRLAKHRKLDRIDVRDVQLNLERNWGLRIPGYSTDEIRAARKWQPEGEYAENVKKISKLNKDQ
For the molecule B1, the binding entry is “binds”.
